# Assay results: the supplement of paper PMC12823440, “Inhibitors supercharge kinase turnover through native proteolytic circuits” (Nature, 2025)
# Amino acid sequences for entries named in this document (tags omitted). A change or cut given only in a name is not applied to a line headed by its entry.
# UniProt Q9Y6E0: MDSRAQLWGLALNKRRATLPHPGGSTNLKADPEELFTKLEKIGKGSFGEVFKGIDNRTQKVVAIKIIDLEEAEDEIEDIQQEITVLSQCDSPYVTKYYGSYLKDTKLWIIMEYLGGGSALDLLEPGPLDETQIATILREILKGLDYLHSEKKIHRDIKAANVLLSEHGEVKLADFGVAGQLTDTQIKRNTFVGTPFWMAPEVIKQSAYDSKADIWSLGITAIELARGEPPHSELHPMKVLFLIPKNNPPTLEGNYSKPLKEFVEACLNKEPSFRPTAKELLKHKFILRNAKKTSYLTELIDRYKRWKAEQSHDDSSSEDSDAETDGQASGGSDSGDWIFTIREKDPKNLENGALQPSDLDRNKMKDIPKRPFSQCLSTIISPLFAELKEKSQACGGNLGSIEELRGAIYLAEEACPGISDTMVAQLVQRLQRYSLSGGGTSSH
# Counter-ions that a name gives are not always drawn. The list shows a part of the results. The calls rarely recur for the same compound in another form.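 Kinases were expressed as nanoluciferase fusions in K562 cells and luminescence was read every 4 h between 2 and 18 h as percent of control, DMSO set to 100% and a positive control to 0%. A time point counts as decreased when the signal drops significantly (2 sigma). The hit call is the authors' own, does not follow from the count of time points alone, and its rule is not shown.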
# Biological target: STK24 (UniProt Q9Y6E0)
# Assay: number of time points (of 5) at which kinase-Nluc abundance scored as decreased, DMSO-normalised (count); higher = more persistent destabilization
# Conditions: K562; 2-18 h
row,SMILES,number of time points
1,COc1ccc(Br)c(C=O)c1O [6-Bromo-2-hydroxy-3-methoxybenzaldehyde] (10 µM),0
2,O=C1C=CC2=C3c4cc(O)c(O)cc4CC3(O)COC2=C1O (centres undefined) [Hematein] (10 µM),0
3,Cc1cccc(CC(=O)N2CCc3c2ccc(-c2cn(C)c4ncnc(N)c24)c3F)n1 (10 µM),0
4,COCCOc1cnc2ccn([C@H](C)c3nnc4c(F)cc(-c5cnn(C)c5)cn34)c(=O)c2c1 (10 µM),0
5,Cn1cc(C2=C(c3ccc(Cl)cc3Cl)C(=O)NC2=O)c2ccccc21 (10 µM),0
6,COc1cc(N2CCC(N3CCN(C)CC3)CC2)ccc1Nc1ncnc(Nc2ccccc2S(=O)(=O)C(C)C)n1 (10 µM),0
7,COc1c(Nc2ncc(Cl)c(N[C@H]3[C@@H](C(N)=O)[C@@H]4C=C[C@H]3C4)n2)ccc2c1CC[C@@H](N1CCOCC1)CC2 (10 µM),0
8,Cc1ccc(NC(=O)N2CCN(c3nc(N)nc4sc(-c5cccnc5)nc34)CC2)cc1 [PI4KIII beta inhibitor 3] (10 µM),0
9,CNc1cc2c(Nc3cccc(Br)c3)ncnc2cn1 (10 µM),0
10,CC(C)n1c(CO)nc2c(F)cc(-c3nc(Nc4ccc(CN5CCNCC5)cn4)ncc3F)cc21 (10 µM),0
11,CN1CCC(Nc2ccc(C(=O)Nc3cc(-c4ccc5c(c4)OCO5)[nH]n3)cc2)CC1 (10 µM),0
12,CNC(=O)CN1CCC(Oc2cc3c(Nc4cccc(Cl)c4F)ncnc3cc2OC)CC1 [Sapitinib] (10 µM),0
13,O=C(O)c1c[nH]c2cc(Cl)c(-c3ccc(C4(O)CCC4)cc3)cc12 (10 µM),0
14,COc1cc(N2CCC(O)CC2)ccc1Nc1nc(Nc2ccccc2S(=O)(=O)C(C)C)c2[nH]cnc2n1 (10 µM),0
15,O=c1c(O)c(-c2ccc(O)c(O)c2)oc2cc(O)c(O)c(O)c12 [Quercetagetin] (10 µM),0
16,Cc1ncsc1-c1ccc(CNC(=O)[C@@H]2C[C@@H](O)CN2C(=O)[C@@H](NC(=O)COCCOc2ccc(-c3cc(Nc4ccc(OC(F)(F)F)cc4)ncn3)cc2)C(C)(C)C)cc1 (2.5 µM),0
17,COc1cc(Nc2ccnc3ccc(Br)cc23)cc(OC)c1OC (2.5 µM),0
18,Cc1ccc2c(NS(=O)(=O)c3ccccc3Cl)cccc2c1Oc1ncccc1-c1ccnc(N[C@H]2CCCNC2)n1 (2.5 µM),0
19,CC(C)c1cc2c(c(O)c1O)[C@@]13CCCC(C)(C)[C@@H]1C[C@@H]2OC3=O [Carnosol] (2.5 µM),0
20,Cc1nc2c(NCc3cccc(S(C)(=O)=O)c3)nccn2c1-c1ccc(O)c(F)c1 (10 µM),0

# Nothing new here: entries from further up.
row,SMILES,number of time points
1,COc1ccc(Br)c(C=O)c1O [6-Bromo-2-hydroxy-3-methoxybenzaldehyde] (10 µM),0
2,O=C1C=CC2=C3c4cc(O)c(O)cc4CC3(O)COC2=C1O (centres undefined) [Hematein] (10 µM),0

# Remaining list, next part

row,SMILES,number of time points
1,CC(C)n1cnc2c(Nc3cccc(Cl)c3)nc(N[C@H]3CCCC[C@@H]3N)nc21 (2.5 µM),0
2,O=c1cc(N2CCOCC2)oc2c(-c3cccc4c3sc3ccccc34)cccc12 (10 µM),0
3,C[C@@H]1COC(Nc2ccc3ncnc(Nc4ccc(OCc5nccs5)c(Cl)c4)c3c2)=N1 [Varlitinib] (10 µM),0
4,Cc1cncc2cccc(S(=O)(=O)N3CCCNC[C@@H]3C)c12 [H-1152 (dihydrochloride)] (10 µM),0
5,CCC[C@H](C)Oc1nc(N)c2[nH]c(=O)n(CCCCCN3CCCCC3)c2n1 (10 µM),0
6,CC(C)(Oc1ccc(Cl)cc1)C(=O)Nc1ccc(OCc2ccc(C#N)cc2)cc1 [AMPK activator 4] (10 µM),0
7,Cc1cc(N2CCOCC2)ccc1Nc1nc(NC2CCCCC2)c2[nH]cnc2n1 (10 µM),0
8,CC(ONC(=O)c1cc(C(F)(F)F)cc(C(F)(F)F)c1)C(=O)Nc1ccc(Cl)cc1 (centres undefined) (2.5 µM),0
9,O=S(=O)(c1ccc(O)cc1O)N1Cc2cc(O)cc(O)c2C1 (10 µM),0
10,CN1CCN(c2ccc(-n3cc(-c4ccncc4OCC4CCNCC4)cn3)cc2)CC1 [MELK-8a (hydrochloride)] (10 µM),0
11,CCCCC(=O)OCC(=O)[C@]1(O)Cc2c(O)c3c(c(O)c2[C@@H](O[C@H]2C[C@H](NC(=O)C(F)(F)F)[C@H](O)[C@H](C)O2)C1)C(=O)c1c(OC)cccc1C3=O [Valrubicin] (10 µM),0
12,CC(C)=CCC[C@](C)(O[C@@H]1O[C@H](CO[C@@H]2O[C@H](CO)[C@@H](O)[C@H](O)[C@H]2O)[C@@H](O)[C@H](O)[C@H]1O)[C@H]1CC[C@]2(C)[C@@H]1[C@H](O)C[C@@H]1[C@@]3(C)CC[C@H](O[C@@H]4O[C@H](CO)[C@@H](O)[C@H](O)[C@H]4O[C@@H]4O[C@H](CO)[C@@H](O)[C@H](O)[C@H]4O)C(C)(C)[C@@H]3CC[C@]12C [Ginsenoside Rb1] (10 µM),0
13,O=c1cc(-c2ccc(O[C@@H]3O[C@H](CO)[C@@H](O)[C@H](O)[C@H]3O)cc2)oc2cc(O)c([C@@H]3O[C@H](CO)[C@@H](O)[C@H](O)[C@H]3O[C@@H]3OC[C@H](O)[C@H](O)[C@H]3O)c(O)c12 [Vaccarin] (10 µM),0
14,Nc1ccc(Sc2nc3ccccc3s2)c(Cl)c1 [KRAS inhibitor-9] (10 µM),0
15,COc1ccc2cc1Oc1ccc(cc1)C[C@H]1c3cc(c(OC)cc3CCN1C)Oc1c(O)c(OC)cc3c1[C@H](C2)N(C)CC3 [Fangchinoline] (2.5 µM),0
16,Nc1nccc(Oc2ccc3c(C(=O)Nc4cccc(C(F)(F)F)c4)cccc3c2)n1 (10 µM),0
17,CN1C(=O)N[C@@H](Cc2c[nH]c3c(Cl)cccc23)C1=O [Necrostatin 2 (S enantiomer)] (10 µM),0
18,Cc1ncc(-c2cc(F)c(O)c(F)c2)cc1-c1cc(F)c(O)c(F)c1 (10 µM),0
19,N=C(NC(=N)N1CCCC1)Nc1ccc(OC(F)(F)F)cc1 (10 µM),0
